From publication PMC4997581 come the findings set out here.

Sequences of proteins named here, by UniProt entry; tags and fusion partners are left off.
UniProt P14635: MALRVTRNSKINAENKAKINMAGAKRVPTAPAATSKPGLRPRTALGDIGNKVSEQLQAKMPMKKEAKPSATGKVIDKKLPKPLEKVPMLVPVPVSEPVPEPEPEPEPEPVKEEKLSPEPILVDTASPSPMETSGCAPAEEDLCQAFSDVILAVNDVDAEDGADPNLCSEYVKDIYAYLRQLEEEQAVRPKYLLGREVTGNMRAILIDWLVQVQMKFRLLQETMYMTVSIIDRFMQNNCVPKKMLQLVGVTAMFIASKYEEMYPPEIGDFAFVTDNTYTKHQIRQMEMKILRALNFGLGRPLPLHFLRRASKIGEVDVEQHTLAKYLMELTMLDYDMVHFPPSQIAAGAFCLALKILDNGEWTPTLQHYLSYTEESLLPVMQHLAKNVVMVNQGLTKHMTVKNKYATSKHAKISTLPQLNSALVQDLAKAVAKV
UniProt O60563: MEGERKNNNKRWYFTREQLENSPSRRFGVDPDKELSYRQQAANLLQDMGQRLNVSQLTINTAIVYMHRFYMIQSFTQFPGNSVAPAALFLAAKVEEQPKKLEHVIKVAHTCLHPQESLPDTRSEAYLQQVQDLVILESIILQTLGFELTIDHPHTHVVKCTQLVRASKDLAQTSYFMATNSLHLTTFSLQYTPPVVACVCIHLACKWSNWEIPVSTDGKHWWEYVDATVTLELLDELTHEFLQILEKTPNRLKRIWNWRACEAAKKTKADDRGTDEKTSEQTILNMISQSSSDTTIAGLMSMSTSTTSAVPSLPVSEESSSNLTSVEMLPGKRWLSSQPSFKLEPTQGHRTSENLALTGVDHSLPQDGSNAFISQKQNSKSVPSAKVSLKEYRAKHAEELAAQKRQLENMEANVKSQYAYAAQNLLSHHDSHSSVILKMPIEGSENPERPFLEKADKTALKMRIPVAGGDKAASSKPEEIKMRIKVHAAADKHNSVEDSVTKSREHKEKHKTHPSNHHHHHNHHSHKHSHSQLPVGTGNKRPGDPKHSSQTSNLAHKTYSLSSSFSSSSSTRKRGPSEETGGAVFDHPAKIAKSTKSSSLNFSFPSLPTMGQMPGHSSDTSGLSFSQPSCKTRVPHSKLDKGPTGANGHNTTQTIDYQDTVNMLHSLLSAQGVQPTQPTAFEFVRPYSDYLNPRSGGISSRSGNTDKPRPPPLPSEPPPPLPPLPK

No constants are given. Whether binding was seen depends on the method and setting. Binding seen in cells or lysates may run through a third protein. Here binding means that the protein was enriched with, or labelled near, the bait; the list need not be complete. For part of these data: Where a sequence is shown, tags or fusion partners need not be part of it.

Test [1] has as its target Cyclin B1 (human (endogenous in 293T and HFF)), P14635. As to the kind of experiment: affinity purification with mass spectrometry. Particulars: remark: other sources report otherwise.
Test [2] has as its target HCMV protein kinase pUL97, Flag-tagged (pUL97-Flag) (human cytomegalovirus) (UniProt P16788). Put plainly: affinity purification with mass spectrometry.
Test [3] deals with Cyclin B1 (human (endogenous in 293T and HFF)) (UniProt P14635). As to the kind of experiment: affinity purification with mass spectrom.
Test [4] has as its target T1, Cyclin H (human (endogenous in 293T and HFF)) (UniProt P51946).
T1 sequence: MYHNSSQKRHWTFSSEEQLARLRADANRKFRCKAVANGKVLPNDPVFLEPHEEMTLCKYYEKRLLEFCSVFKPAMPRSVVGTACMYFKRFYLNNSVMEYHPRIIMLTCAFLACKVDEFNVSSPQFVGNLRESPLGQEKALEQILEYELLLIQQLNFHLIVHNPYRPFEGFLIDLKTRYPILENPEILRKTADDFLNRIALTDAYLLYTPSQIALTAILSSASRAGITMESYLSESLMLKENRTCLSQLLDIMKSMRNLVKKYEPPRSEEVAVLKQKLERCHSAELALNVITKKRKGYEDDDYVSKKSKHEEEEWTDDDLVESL
As to the kind of experiment: affinity purification with mass spectrom.

In test [5] the target is Cyclin T1 (human (endogenous in 293T and HFF)) (UniProt O60563). Put plainly: affinity purification with mass spectrom.

B1: HCMV protein kinase pUL97, Flag-tagged (pUL97-Flag), P16788 1-707 (natural protein)
chain: MSSALRSRARSASLGTTTQGWDPPPLRRPSRARRRQWMREAAQAAAQAAVQAAQAAAAQVAQAHVDENEVVDLMADEAGGGVTTLTTLSSVSTTTVLGHATFSACVRSDVMRDGEKEDAASDKENLRRPVVPSTSSRGSAASGDGYHGLRCRETSAMWSFEYDRDGDVTSVRRALFTGGSDPSDSVSGVRGGRKRPLRPPLVSLARTPLCRRRVGGVDAVLEENDVELRAESQDSAVASGPGRIPQPLSGSSGEESATAVEADSTSHDDVHCTCSNDQIITTSIRGLTCDPRMFLRLTHPELCELSISYLLVYVPKEDDFCHKICYAVDMSDESYRLGQGSFGEVWPLDRYRVVKVARKHSETVLTVWMSGLIRTRAAGEQQQPPSLVGTGVHRGLLTATGCCLLHNVTVHRRFHTDMFHHDQWKLACIDSYRRAFCTLADAIKFLNHQCRVCHFDITPMNVLIDVNPHNPSEIVRAALCDYSLSEPYPDYNERCVAVFQETGTARRIPNCSHRLRECYHPAFRPMPLQKLLICDPHARFPVAGLRRYCMSELSALGNVLGFCLMRLLDRRGLDEVRMGTEALLFKHAGAACRALENGKLTHCSDACLLILAAQMSYGACLLGEHGAALVSHTLRFVEAKMSSCRVRAFRRFYHECSQTMLHEYVRKNVERLLATSDGLYLYNAFRRTTSIICEEDLDGDCRQLFPE
For B1, the binding result in test [1] is recorded as “binds”.

B2: Major CDK9 EF-associated protein (protein, UniProt Q9UHB7 1-1163)
chain: MNREDRNVLRMKERERRNQEIQQGEDAFPPSSPLFAEPYKVTSKEDKLSSRIQSMLGNYDEMKDFIGDRSIPKLVAIPKPTVPPSADEKSNPNFFEQRHGGSHQSSKWTPVGPAPSTSQSQKRSSGLQSGHSSQRTSAGSSSGTNSSGQRHDRESYNNSGSSSRKKGQHGSEHSKSRSSSPGKPQAVSSLNSSHSRSHGNDHHSKEHQRSKSPRDPDANWDSPSRVPFSSGQHSTQSFPPSLMSKSNSMLQKPTAYVRPMDGQESMEPKLSSEHYSSQSHGNSMTELKPSSKAHLTKLKIPSQPLDASASGDVSCVDEILKEMTHSWPPPLTAIHTPCKTEPSKFPFPTKESQQSNFGTGEQKRYNPSKTSNGHQSKSMLKDDLKLSSSEDSDGEQDCDKTMPRSTPGSNSEPSHHNSEGADNSRDDSSSHSGSESSSGSDSESESSSSDSEANEPSQSASPEPEPPPTNKWQLDNWLNKVNPHKVSPASSVDSNIPSSQGYKKEGREQGTGNSYTDTSGPKETSSATPGRDSKTIQKGSESGRGRQKSPAQSDSTTQRRTVGKKQPKKAEKAAAEEPRGGLKIESETPVDLASSMPSSRHKAATKGSRKPNIKKESKSSPRPTAEKKKYKSTSKSSQKSREIIETDTSSSDSDESESLPPSSQTPKYPESNRTPVKPSSVEEEDSFFRQRMFSPMEEKELLSPLSEPDDRYPLIVKIDLNLLTRIPGKPYKETEPPKGEKKNVPEKHTREAQKQASEKVSNKGKRKHKNEDDNRASESKKPKTEDKNSAGHKPSSNRESSKQSAAKEKDLLPSPAGPVPSKDPKTEHGSRKRTISQSSSLKSSSNSNKETSGSSKNSSSTSKQKKTEGKTSSSSKEVKEKAPSSSSNCPPSAPTLDSSKPRRTKLVFDDRNYSADHYLQEAKKLKHNADALSDRFEKAVYYLDAVVSFIECGNALEKNAQESKSPFPMYSETVDLIKYTMKLKNYLAPDATAADKRLTVLCLRCESLLYLRLFKLKKENALKYSKTLTEHLKNSYNNSQAPSPGLGSKAVGMPSPVSPKLSPGNSGNYSSGASSASASGSSVTIPQKIHQMAASYVQVTSNFLYATEIWDQAEQLSKEQKEFFAELDKVMGPLIFNASIMTDLVRYTRQGLHWLRQDAKLIS
B2: the binding entry in test [2], in test [3], in test [4] and in test [5] was “binds” throughout.

B3: CDK inhibitor 1C (protein, UniProt P49918 1-316)
chain: MSDASLRSTSTMERLVARGTFPVLVRTSACRSLFGPVDHEELSRELQARLAELNAEDQNRWDYDFQQDMPLRGPGRLQWTEVDSDSVPAFYRETVQVGRCRLLLAPRPVAVAVAVSPPLEPAAESLDGLEEAPEQLPSVPVPAPASTPPPVPVLAPAPAPAPAPVAAPVAAPVAVAVLAPAPAPAPAPAPAPAPVAAPAPAPAPAPAPAPAPAPAPDAAPQESAEQGANQGQRGQEPLADQLHSGISGRPAAGTAAASANGAAIKKLSGPLISDFFAKRKRSAPEKSSGDVPAPCPSPSAAPGVGSVEQTPRKRLR
With B3, the binding entry in test [3] is recorded as “binds”.
